In publication doi:10.1101/2023.09.17.558147:
These are yes or no findings as the source states them, for the method shown. Binding seen in cells or lysates may run through a third protein. Here binding means that the protein was enriched with, or labelled near, the bait; the list need not be complete. One block for each binder: values may come before it.

Assays:
Experiment in all cases: proximity labelling
[1] = target: T1, Ecm11-TurboID (S. cerevisiae) (UniProt Q04110)
T1 sequence: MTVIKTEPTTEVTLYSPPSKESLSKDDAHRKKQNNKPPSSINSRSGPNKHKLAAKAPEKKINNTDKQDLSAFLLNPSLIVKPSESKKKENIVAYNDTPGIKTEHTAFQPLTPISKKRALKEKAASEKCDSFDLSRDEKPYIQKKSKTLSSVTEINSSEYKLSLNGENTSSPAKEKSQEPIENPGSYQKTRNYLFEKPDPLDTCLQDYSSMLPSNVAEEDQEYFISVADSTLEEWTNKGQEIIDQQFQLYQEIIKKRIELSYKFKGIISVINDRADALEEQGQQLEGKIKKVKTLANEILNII

[2] = target: T2, Msh4-TurboID (S. cerevisiae) (UniProt P40965)
T2 sequence: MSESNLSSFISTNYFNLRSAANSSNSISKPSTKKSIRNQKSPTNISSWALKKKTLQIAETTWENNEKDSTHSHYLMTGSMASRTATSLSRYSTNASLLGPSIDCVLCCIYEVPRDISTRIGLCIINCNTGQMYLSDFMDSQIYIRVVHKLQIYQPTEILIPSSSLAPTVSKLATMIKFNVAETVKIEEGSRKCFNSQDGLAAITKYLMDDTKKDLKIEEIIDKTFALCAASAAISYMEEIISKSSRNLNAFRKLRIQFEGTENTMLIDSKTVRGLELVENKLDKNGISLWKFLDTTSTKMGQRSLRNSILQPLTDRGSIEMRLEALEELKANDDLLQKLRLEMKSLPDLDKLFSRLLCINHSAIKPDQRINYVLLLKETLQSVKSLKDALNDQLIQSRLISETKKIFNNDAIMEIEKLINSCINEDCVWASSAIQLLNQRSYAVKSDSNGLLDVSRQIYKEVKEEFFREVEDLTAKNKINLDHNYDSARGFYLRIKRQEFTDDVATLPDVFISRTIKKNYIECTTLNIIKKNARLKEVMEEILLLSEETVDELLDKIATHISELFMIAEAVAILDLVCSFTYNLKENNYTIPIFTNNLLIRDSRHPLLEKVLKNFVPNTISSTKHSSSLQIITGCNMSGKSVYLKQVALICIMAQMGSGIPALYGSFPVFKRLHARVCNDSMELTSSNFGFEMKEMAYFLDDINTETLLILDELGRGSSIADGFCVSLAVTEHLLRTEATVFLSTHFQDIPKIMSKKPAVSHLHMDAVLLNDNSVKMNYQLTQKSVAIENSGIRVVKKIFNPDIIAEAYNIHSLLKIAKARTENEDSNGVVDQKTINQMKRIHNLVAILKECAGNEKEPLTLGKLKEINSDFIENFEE

[3] = target: T3, Zip2-TurboID (S. cerevisiae) (UniProt P53061)
T3 sequence: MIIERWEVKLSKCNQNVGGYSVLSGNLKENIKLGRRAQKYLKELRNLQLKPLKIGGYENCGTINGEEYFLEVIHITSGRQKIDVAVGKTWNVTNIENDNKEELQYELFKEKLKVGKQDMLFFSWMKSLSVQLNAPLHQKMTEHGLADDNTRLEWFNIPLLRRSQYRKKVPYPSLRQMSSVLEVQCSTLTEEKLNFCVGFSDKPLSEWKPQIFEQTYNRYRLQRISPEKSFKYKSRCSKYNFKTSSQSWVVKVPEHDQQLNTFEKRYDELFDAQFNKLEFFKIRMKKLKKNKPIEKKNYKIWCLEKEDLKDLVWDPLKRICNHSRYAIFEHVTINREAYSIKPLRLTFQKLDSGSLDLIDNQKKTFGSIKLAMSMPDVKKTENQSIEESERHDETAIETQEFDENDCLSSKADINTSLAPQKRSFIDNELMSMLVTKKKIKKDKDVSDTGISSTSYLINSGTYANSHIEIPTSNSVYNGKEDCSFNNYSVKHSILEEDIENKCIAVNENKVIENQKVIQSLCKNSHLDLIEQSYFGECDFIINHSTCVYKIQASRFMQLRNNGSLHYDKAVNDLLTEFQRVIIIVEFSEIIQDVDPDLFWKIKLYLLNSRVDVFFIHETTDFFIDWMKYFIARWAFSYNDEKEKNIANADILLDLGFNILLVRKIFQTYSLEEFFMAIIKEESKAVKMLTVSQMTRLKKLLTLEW

binding [1]: binds
binding [2]: binds
binding [3]: binds
B1: Rim4 (protein, UniProt P38741 1-713)
chain: MKTEISTADSLRDPPSNGLKADSELVIREDIDQFLPSEVSSLGSDHQNDGEDSDTDSDNFLQDPEDDVDEESTGRGTVTTTSTSTESRGRPSSCIFVASLAAALSDDELCLSVTENFKKYGDLARVKVLRDNANRPYAFVQYNNDHDAKHALIRAQGTLLNGRRLRCEPAKVNRTLYLKNQQSIDFNEISQICEKFGGLEQIVPDRTDNQYTRRYTYPISSANSWFVQFVYRDDAIRAYANLRTDPNWIIEWAQNINVPKNYNLLHKSKFKSSKYHQNNGIINNDGSNNNDNNNSNNNNREDSRRNGDVIEEECGHVHGSDSEEKLTSDGIYDDEDKDSEITIDKRSIFVGQLDKETTREELNRRFSTHGKIQDINLIFKPTNIFAFIKYETEEAAAAALESENHAIFLNKTMHVQYKEVGGRHNRKFSGKNGGSNFNHHQFFSTRSGKTFTGPELNLAPPPINMYRKMSGGSQQESETMMPYMPMGPMPMGPPPPNAASLSDFDMFPPSYSTFMKGMMPLRRKSMPNSWSSPSSKSVNSENESVNGGDENSELPSEIPESSGRYNAANSFTTYNNSSAGNSNNNNNNNNSNSNKSQYKKRYARRSSYGYNEVPPKPYYFQPYYYHPMQYHMGPMGPLHPSQGSAGNHHPYMMVYPMSPPPPSGLDGSMIPPPINVSQSHAANHGSTHVHANEFISNDTGDINEDNKAYSLDY

binding [2]: binds
binding [3]: binds
B2: Zip1 (protein, UniProt P31111 1-875)
chain: MSNFFRDSSMGFKPRPNIFAKLRVRDVDSDSSANTVVENSSNCLDVGSSIEGDDTFKKPHKTSTEQELITSMSLSQRNHGYSDDMEIGSPKKTTSTDQYNRILKNDVAAIENDTDEDFEITEVREVSEGVAKETKESHGDPNDSETTLKDSKMHEYTMTNGKAPLHTSINNSSTSSNDVLLEAFTNTQRICSNLKQELQKQQQDNAKLKVRLQSYASNSDKINEKVGKYKSCLETLQERIATLTSHKNNQETKLKDLRQNHQLYQRRISGFKTSIENLNKTINDLGKNKKEADAELMKKGKEIEYLKRELDDCSGQLSEEKIKNSSLIQEMGKNREEMIKSIENFFSEDKAHHLLQFNKFEERVHDLFEKKLQKHFDVAKDTLNVGLRNTTVELSSNTETMLKQQYEDIKENLEQKMSSSKDEMAKTINELSVTQKGLIMGVQEELLTSSGNIQTALVSEMNNTRQELLDDASQTAKNYASLENLVKAYKAEIVQSNEYEERIKHLESERSTLSSQKNQIISSLGTKEAQYEDLVKKLEAKNIEISQISGKEQSLTEKNENLSNELKKVQDQLEKLNNLNITTKSNYENKISSQNEIVKALVSENDTLKQRIQQLVEIKENEQKDHTTKLEAFQKNNEQLQKLNVEVVQLKAHELELEEQNRHLKNCLEKKETGVEESLSDVKTLKQQVIVLKSEKQDITAEKLELQDNLESLEEVTKNLQQKVQSQKRELEQKIKELEEIKNHKRNEPSKKGTQNFTKPSDSPKKNATTSNLFPNNSAAIHSPMKKCPKVDHISKSRINSSKETSKFNDEFDLSSSSNDDLELTNPSPIQIKPVRGKIKKGSNCMKPPISSRKKLLLVEDEDQSLKISKKRRRK

binding [1]: binds
binding [2]: binds
binding [3]: binds
B3: Pif1 helicase (protein, UniProt P07271 46-859)
chain: RSNNFIQAQLKHPSILSKEDLDLLSDSDDWEEPDCIQLETEKQEKKIITDIHKEDPVDKKPMRDKNVMNFINKDSPLSWNDMFKPSIIQPPQLISENSFDQSSQKKSRSTGFKNPLRPALKKESSFDELQNNSISQERSLEMINENEKKKMQFGEKIAVLTQRPSFTELQNDQDDSNLNPHNGVKVKIPICLSKEQESIIKLAENGHNIFYTGSAGTGKSILLREMIKVLKGIYGRENVAVTASTGLAACNIGGITIHSFAGIGLGKGDADKLYKKVRRSRKHLRRWENIGALVVDEISMLDAELLDKLDFIARKIRKNHQPFGGIQLIFCGDFFQLPPVSKDPNRPTKFAFESKAWKEGVKMTIMLQKVFRQRGDVKFIDMLNRMRLGNIDDETEREFKKLSRPLPDDEIIPAELYSTRMEVERANNSRLSKLPGQVHIFNAIDGGALEDEELKERLLQNFLAPKELHLKVGAQVMMVKNLDATLVNGSLGKVIEFMDPETYFCYEALTNDPSMPPEKLETWAENPSKLKAAMEREQSDGEESAVASRKSSVKEGFAKSDIGEPVSPLDSSVFDFMKRVKTDDEVVLENIKRKEQLMQTIHQNSAGKRRLPLVRFKASDMSTRMVLVEPEDWAIEDENEKPLVSRVQLPLMLAWSLSIHKSQGQTLPKVKVDLRRVFEKGQAYVALSRAVSREGLQVLNFDRTRIKAHQKVIDFYLTLSSAESAYKQLEADEQVKKRKLDYAPGPKYKAKSKSKSNSPAPISATTQSNNGIAAMLQRHSRKRFQLKKESNSNQVHSLVSDEPRGQDTEDHILE
